About 4,000 (1%) of roughly 390,000 compounds were called active. Inconclusive means that the source gave no clear call. Such entries were picked first, then a sample of the others. Calls come from the whole dose curve; as a rule, active = well fitted inhibition curve with a large enough effect; inconclusive = small, poorly fitted or top-dose-only effect, or another doubt; inactive = no such curve, though single readings can be large or run the other way. Potencies beside an inconclusive call are fits to weak or partial responses and may not hold up.
What follows are compounds tested against DNA polymerase iota (Homo sapiens) (UniProt Q9UNA4) (assay: qHTS for Inhibitors of Polymerase Iota). Conditions: Pol iota fluorescent replication assay, 10 min; series mostly up to 115 µM; activity, negative = inhibition: at the top concentration.
Outline: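 Pol iota at 10 nM preincubated 15 min with compounds at room temperature; reaction started with fluorescent substrate, 50 nM final. Fluorescence read kinetically at 0 and 10 min; buffer-only wells as negative control.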
Potency is the fitted concentration of half-maximal effect.

Amino acid sequences for entries named in this document (tags omitted). A change or cut given only in a name is not applied to a line headed by its entry.
UniProt Q9UNA4: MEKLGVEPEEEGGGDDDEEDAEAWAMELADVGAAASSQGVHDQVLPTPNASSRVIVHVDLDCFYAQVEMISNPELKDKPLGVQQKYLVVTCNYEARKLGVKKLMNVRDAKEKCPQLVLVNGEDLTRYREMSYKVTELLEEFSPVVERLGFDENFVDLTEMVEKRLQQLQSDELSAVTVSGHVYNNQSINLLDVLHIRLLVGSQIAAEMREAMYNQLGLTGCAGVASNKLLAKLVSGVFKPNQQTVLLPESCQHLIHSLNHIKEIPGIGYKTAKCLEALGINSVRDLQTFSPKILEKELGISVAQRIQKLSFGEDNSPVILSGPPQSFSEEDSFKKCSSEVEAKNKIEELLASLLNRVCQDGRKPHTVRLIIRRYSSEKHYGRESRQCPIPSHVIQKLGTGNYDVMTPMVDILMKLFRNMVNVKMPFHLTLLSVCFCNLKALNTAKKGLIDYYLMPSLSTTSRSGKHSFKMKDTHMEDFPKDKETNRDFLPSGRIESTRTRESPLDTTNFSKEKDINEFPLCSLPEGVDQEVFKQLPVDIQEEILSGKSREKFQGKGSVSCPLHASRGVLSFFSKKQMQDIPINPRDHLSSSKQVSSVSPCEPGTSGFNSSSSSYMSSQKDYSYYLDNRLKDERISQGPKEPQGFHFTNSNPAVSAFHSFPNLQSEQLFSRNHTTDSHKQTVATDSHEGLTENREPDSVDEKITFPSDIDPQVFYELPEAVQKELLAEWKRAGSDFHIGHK

Potency, inconclusive:
O=C1NC(=S)S/C1=C1\Sc2ccccc2N1CCCS(=O)(=O)O 20 µM [inhibitor, partial curve, poor fit], Oc1ccc(Cl)cc1C1C=C(c2ccc3c(c2)OCO3)NC(c2c(F)cccc2Cl)N1 (stereo unspecified) 12.6 µM [inhibitor, full curve, poor fit], COc1cc2c(cc1OC)C(c1ccc(N(C)C)cc1)NCC2 (stereo unspecified) 79.4 µM [inhibitor, single point], O=C(O)CSc1nnc(CNc2cccc(C(F)(F)F)c2)n1Cc1ccco1 39.8 µM [inhibitor, single point], O=C(O)c1ccc(/C=C(\c2nc3ccccc3[nH]2)c2nc3ccccc3s2)cc1 28.2 µM [inhibitor, single point], CCOC(=O)c1cc(-c2ccccc2)sc1NC(=O)c1ccc(OC)cc1 15.8 µM [inhibitor, partial curve, poor fit], COCCn1c(CN2CCN(c3ccccc3)CC2)nc2c1c(=O)n(C)c(=O)n2C 39.8 µM [inhibitor, partial curve, poor fit], Cn1nc(C(=O)Nc2ccc(S(=O)(=O)Nc3ncccn3)cc2)ccc1=O 14.1 µM [inhibitor, full curve], O=C(NNC(=O)c1ccc2ccccc2c1)c1ccc(Cl)cc1 70.8 µM [inhibitor, partial curve, poor fit], O=C(O)c1ccc(CN2C(=O)c3cccc4c([N+](=O)[O-])ccc(c34)C2=O)cc1 12.6 µM [inhibitor, partial curve, poor fit], Cn1cccc1C(=O)OCC(=O)NCc1ccc2c(c1)OCO2 35.5 µM [inhibitor, single point], c1coc(-c2nnc3sc(-c4cccs4)nn23)c1 17.8 µM [inhibitor, partial curve, poor fit], c1ccc(Cn2nnc(CNc3ccccc3)c2-c2c(CNc3ccccc3)nnn2Cc2ccccc2)cc1 20 µM [inhibitor, single point], O=C(Nc1ccc(Cl)cc1)c1cccc(NC2=NC3CS(=O)(=O)CC3S2)c1 (stereo unspecified) 22.4 µM [inhibitor, single point], CC1=Nc2cc(C(=O)NC3CCCCC3)ccc2Sc2ccc(Cl)cc21 79.4 µM [inhibitor, partial curve, poor fit], CCOC(=O)c1ccc2c(c1)C1C=CCC1C(C(=O)OCC)N2 (stereo unspecified) 15.8 µM [inhibitor, full curve, poor fit], Cc1ccc(NC(=O)C2CCN(S(=O)(=O)c3ccc4c(c3)CCCC(=O)N4)CC2)c(Cl)c1 89.1 µM [inhibitor, single point], C=CCn1c(COc2ccc(Cl)cc2)nnc1SCC(=O)N/N=C/c1ccccc1 15.8 µM [inhibitor, single point], CCN(N=O)[C@@H](Cc1ccccc1)CN(N=O)[C@@H](Cc1ccccc1)CN(C)N=O 79.4 µM [inhibitor, single point], N=C1C(c2ccccc2)=C(O)CN1CCO 7.08 µM [inhibitor, partial curve, poor fit], Cc1[nH]nc2c1C1(CCN(Cc3ccccc3)CC1)C(C#N)=C(N)O2 39.8 µM [inhibitor, partial curve, poor fit], O=C(COc1ccc(Cl)cc1Cl)NC(=S)N1CCCc2ccccc21 50.1 µM [inhibitor, partial curve, poor fit], Cn1c(S(=O)(=O)O)nc2ccccc21 56.2 µM [inhibitor, partial curve, poor fit], COc1ccccc1-c1nn2c(-c3cc(C)[nH]n3)nnc2s1 35.5 µM [inhibitor, single point], COC(=O)c1ccc(C2=NOC(C)(c3nnc(Cc4ccccc4)o3)C2)cc1 (stereo unspecified) 1 µM [inhibitor, full curve, poor fit], COc1cc(C(c2c(C)[nH][nH]c2=O)c2c(C)[nH][nH]c2=O)cc([N+](=O)[O-])c1O 20 µM [inhibitor, partial curve, poor fit], Cc1cccc(NC(=O)Cc2coc3ccc4ccccc4c23)n1 22.4 µM [inhibitor, full curve], Oc1ccc(/C=C/c2nc(-c3ccccc3O)n(-c3ccccc3)n2)c(O)c1 100 µM [inhibitor, single point], CCc1sc(C(=O)NCc2ccco2)cc1Br 28.2 µM [inhibitor, partial curve, poor fit], CCCCSc1nc2c(cnn2-c2ccc(F)cc2)c(=O)[nH]1 39.8 µM [inhibitor, single point], COc1cc(NC(=O)c2cccc([N+](=O)[O-])c2)ccc1NC(=O)c1cc2ccccc2o1 50.1 µM [inhibitor, partial curve, poor fit]

Potency, active:
COc1ccc(/C=N/NC(=O)c2ccc(Cl)cc2)cc1Cn1cc(Cl)cn1 79.4 µM, Cc1ccc(NC2=C(N3CCOCC3)C(=O)c3ccccc3C2=O)cc1 8.91 µM

activity, negative = inhibition, inactive:
Nc1ccn(CC(=O)NCCc2ccccn2)c(=O)n1 0.253%, Cc1ccc(C(=O)N/N=C\c2ccc(-c3ccc(Cl)c(Cl)c3)o2)cn1 -18.9%, CC/C(=C/c1ccccc1)c1cc(Oc2ccccc2)cc2oc3ccccc3c12 4.51%, O=C(CCCc1ccccc1)NC1CC(=O)N(c2ccc(Cl)cc2)C1 (stereo unspecified) -9.78%, CCCCC1=CC2=C(c3ccco3)C(=O)C(C)(OC(=O)c3ccc(OC)cc3)C(=O)C2=CN1C1CCCCC1 (stereo unspecified) 39.4%, CC(=O)c1c(C)[nH]c(C(=O)COC(=O)c2cccnc2Cl)c1C -3.83%, O=C(O)c1ccc(NC(=O)C2CC=CCC2C(=O)O)cc1 (stereo unspecified) 8.19%, O=C(N/N=C/c1ccc2c(c1)OCO2)c1cc2ccccc2o1 -1.94%

Source: PubChem BioAssay AID588590 (National Center for Advancing Translational Sciences (NCATS), 2011)
